3 substances from article PMC5324553 can be followed below.

The chains behind the UniProt entries cited, without tags or fusion partners.
UniProt P29466: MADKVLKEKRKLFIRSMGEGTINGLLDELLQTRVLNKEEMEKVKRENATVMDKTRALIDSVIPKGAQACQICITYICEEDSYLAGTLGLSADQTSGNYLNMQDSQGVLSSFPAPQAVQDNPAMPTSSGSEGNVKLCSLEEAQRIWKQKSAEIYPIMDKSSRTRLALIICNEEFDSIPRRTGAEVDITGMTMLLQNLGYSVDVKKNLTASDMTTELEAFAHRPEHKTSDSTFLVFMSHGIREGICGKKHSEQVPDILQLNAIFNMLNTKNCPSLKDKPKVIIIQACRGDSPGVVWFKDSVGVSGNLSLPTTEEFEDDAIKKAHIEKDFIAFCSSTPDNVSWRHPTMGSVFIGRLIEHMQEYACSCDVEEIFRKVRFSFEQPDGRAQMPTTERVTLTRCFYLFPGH
UniProt Q96P20: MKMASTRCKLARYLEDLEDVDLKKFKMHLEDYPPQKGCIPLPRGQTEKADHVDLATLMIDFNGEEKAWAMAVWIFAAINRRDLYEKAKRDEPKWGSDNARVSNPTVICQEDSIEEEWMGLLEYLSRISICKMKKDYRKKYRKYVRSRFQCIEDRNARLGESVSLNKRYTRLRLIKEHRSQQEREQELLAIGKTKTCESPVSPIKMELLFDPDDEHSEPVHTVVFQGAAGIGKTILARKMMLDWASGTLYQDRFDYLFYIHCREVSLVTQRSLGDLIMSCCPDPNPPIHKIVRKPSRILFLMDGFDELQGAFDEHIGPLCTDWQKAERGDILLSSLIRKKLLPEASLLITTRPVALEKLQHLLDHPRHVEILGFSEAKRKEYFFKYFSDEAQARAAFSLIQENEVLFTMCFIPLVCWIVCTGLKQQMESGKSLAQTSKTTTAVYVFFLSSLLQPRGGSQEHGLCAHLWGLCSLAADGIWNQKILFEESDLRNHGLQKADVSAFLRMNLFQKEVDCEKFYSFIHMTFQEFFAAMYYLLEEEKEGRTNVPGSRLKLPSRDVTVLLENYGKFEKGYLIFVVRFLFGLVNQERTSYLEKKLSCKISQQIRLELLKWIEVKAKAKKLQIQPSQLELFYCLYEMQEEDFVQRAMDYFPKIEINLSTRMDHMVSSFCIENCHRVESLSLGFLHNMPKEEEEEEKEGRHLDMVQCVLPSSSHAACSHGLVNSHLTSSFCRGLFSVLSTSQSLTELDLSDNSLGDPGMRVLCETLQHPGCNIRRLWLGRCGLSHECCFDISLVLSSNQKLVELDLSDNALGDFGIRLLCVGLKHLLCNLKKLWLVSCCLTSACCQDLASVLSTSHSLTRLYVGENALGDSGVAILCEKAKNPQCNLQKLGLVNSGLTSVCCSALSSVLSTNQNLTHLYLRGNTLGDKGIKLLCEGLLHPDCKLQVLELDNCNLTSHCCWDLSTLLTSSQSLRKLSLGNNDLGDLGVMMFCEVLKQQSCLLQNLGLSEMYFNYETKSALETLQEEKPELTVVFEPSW
UniProt Q9ULZ3: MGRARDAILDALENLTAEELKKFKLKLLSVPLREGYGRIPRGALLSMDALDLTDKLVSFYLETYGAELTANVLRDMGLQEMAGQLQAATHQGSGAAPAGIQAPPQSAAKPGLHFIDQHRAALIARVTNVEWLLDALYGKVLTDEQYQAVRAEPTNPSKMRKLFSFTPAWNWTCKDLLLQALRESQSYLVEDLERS

These are yes or no findings as the source states them, for the method shown. Binding seen in cells or lysates may run through a third protein. Some results given as binding are weak or reduced against the parent protein; the word gives no strength. Sequences can lack the tags named with a protein.

For this experiment, the target named is T1, Flag-USP50 (ubiquitin-specific peptidase 50) (UniProt Q70EL3).
T1 sequence: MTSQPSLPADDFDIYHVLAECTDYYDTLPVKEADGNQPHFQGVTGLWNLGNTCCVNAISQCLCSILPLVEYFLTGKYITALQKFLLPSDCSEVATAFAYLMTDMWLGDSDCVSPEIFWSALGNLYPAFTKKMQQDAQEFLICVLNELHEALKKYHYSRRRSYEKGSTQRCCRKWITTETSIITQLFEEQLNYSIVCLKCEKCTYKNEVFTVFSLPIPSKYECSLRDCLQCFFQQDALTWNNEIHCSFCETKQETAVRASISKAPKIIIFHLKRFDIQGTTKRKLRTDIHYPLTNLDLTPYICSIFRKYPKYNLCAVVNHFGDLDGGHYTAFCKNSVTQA
In words: co-IP; HEK293 cells co-transfected with an HA-tagged inflammasome component and Flag-USP50; lysates immunoprecipitated with Flag antibody and immunoblotted. A general note: Immunoblotting shows a protein as a band on a membrane.
Regarding “HA-procaspase-1 (from UniProt P29466 1-404)”, the binding result is “no binding”. With “HA-NLRP3 (NOD-like receptor family protein 3) (from UniProt Q96P20 1-1036)” the entry was “binds weakly”; with “HA-ASC (apoptosis-associated speck-like protein containing a caspase activation and recruitment domain) (from UniProt Q9ULZ3 1-195)”, “binds”.
